Results: the supplement of paper PMC10849652
The other results are listed elsewhere or left out.

Chains of the proteins cited; added tags and fusions are not shown. Lines headed by an entry give the natural chain unless they say otherwise; changes in a name come on top.
UniProt Q96HA1, whole entry, looked up: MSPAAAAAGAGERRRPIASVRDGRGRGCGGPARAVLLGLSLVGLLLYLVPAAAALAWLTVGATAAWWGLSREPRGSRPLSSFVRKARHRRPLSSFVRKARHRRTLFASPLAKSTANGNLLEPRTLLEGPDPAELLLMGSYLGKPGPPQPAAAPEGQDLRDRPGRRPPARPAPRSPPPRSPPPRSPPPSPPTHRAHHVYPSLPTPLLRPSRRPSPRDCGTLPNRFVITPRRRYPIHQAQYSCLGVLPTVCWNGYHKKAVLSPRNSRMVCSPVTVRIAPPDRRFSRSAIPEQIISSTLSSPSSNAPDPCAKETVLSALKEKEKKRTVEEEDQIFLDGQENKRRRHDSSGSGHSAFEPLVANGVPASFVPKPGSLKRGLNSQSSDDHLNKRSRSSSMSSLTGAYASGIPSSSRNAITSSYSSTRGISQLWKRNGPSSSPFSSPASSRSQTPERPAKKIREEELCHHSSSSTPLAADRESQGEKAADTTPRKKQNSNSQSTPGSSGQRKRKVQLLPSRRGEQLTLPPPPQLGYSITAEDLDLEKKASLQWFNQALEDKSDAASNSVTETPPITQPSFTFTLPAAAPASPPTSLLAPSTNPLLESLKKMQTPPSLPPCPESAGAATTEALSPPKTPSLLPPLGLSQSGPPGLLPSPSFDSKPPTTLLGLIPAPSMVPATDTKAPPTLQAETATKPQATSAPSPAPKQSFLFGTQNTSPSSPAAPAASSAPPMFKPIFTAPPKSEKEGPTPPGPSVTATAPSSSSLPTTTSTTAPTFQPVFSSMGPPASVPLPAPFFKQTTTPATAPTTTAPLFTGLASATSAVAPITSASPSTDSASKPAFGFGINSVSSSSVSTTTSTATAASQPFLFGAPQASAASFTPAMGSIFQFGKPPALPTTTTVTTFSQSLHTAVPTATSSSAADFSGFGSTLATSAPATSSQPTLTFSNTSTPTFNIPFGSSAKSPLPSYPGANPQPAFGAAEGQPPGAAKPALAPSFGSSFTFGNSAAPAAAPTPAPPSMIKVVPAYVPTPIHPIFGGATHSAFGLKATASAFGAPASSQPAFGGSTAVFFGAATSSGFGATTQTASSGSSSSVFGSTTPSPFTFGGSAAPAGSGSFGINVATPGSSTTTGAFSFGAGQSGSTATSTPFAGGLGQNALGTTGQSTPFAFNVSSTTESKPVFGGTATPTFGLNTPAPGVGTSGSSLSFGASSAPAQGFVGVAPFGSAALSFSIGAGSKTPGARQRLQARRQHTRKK
UniProt Q9HBL7: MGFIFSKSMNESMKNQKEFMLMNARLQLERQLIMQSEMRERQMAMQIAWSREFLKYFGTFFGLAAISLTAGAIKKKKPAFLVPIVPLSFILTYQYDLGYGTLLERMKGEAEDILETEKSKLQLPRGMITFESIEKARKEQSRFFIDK
UniProt Q8IY26: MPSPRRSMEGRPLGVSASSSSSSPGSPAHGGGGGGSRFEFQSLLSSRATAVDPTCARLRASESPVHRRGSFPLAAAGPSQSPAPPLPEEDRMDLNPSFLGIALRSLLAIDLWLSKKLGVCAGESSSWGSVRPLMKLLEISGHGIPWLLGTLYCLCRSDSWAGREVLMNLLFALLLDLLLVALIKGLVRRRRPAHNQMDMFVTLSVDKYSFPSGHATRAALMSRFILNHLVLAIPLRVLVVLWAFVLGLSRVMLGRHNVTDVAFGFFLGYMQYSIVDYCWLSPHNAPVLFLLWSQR
UniProt P55058, whole entry, looked up: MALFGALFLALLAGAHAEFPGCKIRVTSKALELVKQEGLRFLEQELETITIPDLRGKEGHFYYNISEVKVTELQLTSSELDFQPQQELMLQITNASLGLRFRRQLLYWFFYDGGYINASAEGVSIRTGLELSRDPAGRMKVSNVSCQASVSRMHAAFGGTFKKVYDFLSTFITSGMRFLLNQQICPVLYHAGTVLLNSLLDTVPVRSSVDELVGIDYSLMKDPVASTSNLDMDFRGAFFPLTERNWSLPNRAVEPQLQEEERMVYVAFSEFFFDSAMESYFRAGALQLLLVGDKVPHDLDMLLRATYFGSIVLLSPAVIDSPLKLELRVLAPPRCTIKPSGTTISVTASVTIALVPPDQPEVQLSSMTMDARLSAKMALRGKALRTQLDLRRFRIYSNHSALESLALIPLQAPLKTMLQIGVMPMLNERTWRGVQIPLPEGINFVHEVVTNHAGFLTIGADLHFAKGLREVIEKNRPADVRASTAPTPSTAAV
UniProt Q15126: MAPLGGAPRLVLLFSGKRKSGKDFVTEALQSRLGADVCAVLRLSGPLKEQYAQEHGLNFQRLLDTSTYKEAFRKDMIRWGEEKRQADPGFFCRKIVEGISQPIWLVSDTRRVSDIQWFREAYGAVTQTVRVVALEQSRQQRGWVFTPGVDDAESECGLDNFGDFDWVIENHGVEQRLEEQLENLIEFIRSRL
UniProt A8CG34, whole entry, looked up: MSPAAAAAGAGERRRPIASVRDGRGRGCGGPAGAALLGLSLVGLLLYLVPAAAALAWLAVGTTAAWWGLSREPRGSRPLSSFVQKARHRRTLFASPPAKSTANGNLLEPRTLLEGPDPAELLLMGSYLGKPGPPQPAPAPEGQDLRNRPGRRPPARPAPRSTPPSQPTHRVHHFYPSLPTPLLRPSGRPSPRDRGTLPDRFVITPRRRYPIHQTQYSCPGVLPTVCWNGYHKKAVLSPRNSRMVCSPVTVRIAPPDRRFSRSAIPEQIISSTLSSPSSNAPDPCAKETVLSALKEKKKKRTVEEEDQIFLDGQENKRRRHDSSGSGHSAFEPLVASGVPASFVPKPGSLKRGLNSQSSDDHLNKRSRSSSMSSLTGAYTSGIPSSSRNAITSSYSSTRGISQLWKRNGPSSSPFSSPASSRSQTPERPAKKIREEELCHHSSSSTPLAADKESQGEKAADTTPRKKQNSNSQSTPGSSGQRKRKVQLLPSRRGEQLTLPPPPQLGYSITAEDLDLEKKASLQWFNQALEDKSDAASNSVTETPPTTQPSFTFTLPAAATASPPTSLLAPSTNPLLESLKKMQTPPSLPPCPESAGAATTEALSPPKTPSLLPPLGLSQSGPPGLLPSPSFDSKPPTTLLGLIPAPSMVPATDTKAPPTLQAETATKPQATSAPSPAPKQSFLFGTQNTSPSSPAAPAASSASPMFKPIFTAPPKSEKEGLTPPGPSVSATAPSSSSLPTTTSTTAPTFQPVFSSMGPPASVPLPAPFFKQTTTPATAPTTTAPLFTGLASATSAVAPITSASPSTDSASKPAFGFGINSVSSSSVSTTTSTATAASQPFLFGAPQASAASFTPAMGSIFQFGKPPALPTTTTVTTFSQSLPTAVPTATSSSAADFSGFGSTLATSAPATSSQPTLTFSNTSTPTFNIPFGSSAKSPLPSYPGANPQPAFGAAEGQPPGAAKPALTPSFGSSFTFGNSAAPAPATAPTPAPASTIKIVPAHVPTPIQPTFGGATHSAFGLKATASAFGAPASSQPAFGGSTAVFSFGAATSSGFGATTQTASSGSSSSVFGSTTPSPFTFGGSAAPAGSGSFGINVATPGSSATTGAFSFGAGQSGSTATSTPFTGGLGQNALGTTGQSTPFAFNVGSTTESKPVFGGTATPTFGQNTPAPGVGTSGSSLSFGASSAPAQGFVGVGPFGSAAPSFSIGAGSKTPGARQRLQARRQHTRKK
UniProt Q8TF01: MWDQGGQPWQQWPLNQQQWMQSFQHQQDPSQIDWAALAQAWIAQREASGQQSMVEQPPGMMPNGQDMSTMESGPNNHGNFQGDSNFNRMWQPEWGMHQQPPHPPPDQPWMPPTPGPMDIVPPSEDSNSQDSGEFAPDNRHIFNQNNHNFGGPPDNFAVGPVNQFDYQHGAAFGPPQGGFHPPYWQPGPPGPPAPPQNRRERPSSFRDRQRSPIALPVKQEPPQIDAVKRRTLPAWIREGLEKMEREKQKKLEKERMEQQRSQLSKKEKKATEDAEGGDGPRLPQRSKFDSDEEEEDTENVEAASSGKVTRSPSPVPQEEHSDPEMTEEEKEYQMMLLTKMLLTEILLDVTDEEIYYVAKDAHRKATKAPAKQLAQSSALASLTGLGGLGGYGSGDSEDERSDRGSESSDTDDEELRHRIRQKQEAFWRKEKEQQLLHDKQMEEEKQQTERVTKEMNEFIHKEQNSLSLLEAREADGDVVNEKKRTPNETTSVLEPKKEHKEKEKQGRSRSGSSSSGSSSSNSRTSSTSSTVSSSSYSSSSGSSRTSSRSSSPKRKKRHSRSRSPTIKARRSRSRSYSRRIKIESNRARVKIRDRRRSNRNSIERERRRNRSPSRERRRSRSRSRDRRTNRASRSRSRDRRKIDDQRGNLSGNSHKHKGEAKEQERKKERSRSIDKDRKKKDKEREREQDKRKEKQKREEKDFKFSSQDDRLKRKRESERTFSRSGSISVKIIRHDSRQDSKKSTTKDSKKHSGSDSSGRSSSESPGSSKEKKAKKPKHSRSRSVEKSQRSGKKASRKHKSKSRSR

What was measured:
Test in all cases: log2 fold change, soluble protein after heating vs DMSO (PISA); higher = thermal stabilisation; K562 cells, 10 uM, 30 min; active = over 0.2 and 3.5 SD of the protein, either way, in both replicates (recomputed)
[1] = compound: NC(=O)Nc1cc(-c2cccc(F)c2)sc1C(=O)N[C@H]1CCCNC1
Method in brief: (§1)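 K562 cells at 2×10^6 cells/mL were given 10 μM compound for 30 min. Aliquots then went through 3 min of heating across 48°C-58°C, were pooled, and were extracted in PBS with 0.5% NP-40 at 4°C, and the supernatant after 21,000xg for 90 min was quantified by TMTpro 16plex LC-MS/MS with channel sums equalised. Thermal stability relative to control samples, from duplicates, is given as log2 fold change.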

[2] = compound: NC(=O)c1cnc(N[C@@H]2CCCC[C@@H]2N)nc1Nc1cccc(-n2nccn2)c1
Method in brief: as §1

[3] = compound: NCC(=O)Nc1ccc(-n2nc(C(F)(F)F)cc2-c2ccc3c(ccc4ccccc43)c2)cc1
Method in brief: as §1

entinostat = compound: Nc1ccccc1NC(=O)c1ccc(CNC(=O)OCc2cccnc2)cc1 [entinostat]
Method in brief: as §1

vorinostat = compound: O=C(CCCCCCC(=O)Nc1ccccc1)NO [vorinostat]
Method in brief: as §1

citarinostat = compound: O=C(CCCCCCNC(=O)c1cnc(N(c2ccccc2)c2ccccc2Cl)nc1)NO [citarinostat]
Method in brief: as §1

[4] = compound: O=C1NC(=O)C(c2cnc3ccccn23)=C1c1cn2c3c(cc(F)cc13)CN(C(=O)N1CCCCC1)CC2
Method in brief: as §1

[5] = compound: c1cc(OCCN2CCCCC2)cc(-c2n[nH]c3ccc(-c4nnc[nH]4)cc23)c1
Method in brief: as §1

entospletinib = compound: c1cn2cc(-c3ccc4cn[nH]c4c3)nc(Nc3ccc(N4CCOCC4)cc3)c2n1 [entospletinib]
Method in brief: as §1

[6] = compound: NC1(c2ccc(-c3nc4ccn5c(=O)[nH]nc5c4cc3-c3ccccc3)cc2)CCC1
Method in brief: as §1

silmitasertib = compound: O=C(O)c1ccc2c(c1)nc(Nc1cccc(Cl)c1)c1ccncc12 [silmitasertib]
Method in brief: as §1

Measured: log2 fold change

POM121 (UniProt Q96HA1)
inactive: [1] -0.015 | [2] -0.199 | [3] -0.083 | entinostat 0.01 | vorinostat 0.055 | citarinostat 0.045 | [4] 0.05 | [5] -0.045

PNKP (UniProt Q96T60)
inactive: [1] -0.148 | [2] 0.138 | [3] -0.077 | entinostat 0.057 | vorinostat -0.333 | citarinostat 0.078 | [5] 0.198 | entospletinib -0.131

PLGRKT (UniProt Q9HBL7)
inactive: [1] -0.157 | [2] -0.055 | [6] -0.238 | entinostat 0.026 | vorinostat -0.083 | citarinostat 0.069 | silmitasertib 0.031 | [4] -0.082 | [5] -0.179 | entospletinib -0.181

PLPP6 (UniProt Q8IY26)
inactive: [1] -0.002 | [2] 0.136 | [6] -0.099 | [3] 0.135 | entinostat 0.067 | vorinostat 0.04 | silmitasertib -0.009 | [4] -0.058

PLTP (UniProt P55058)
inactive: [1] 0.14 | [6] -0.027 | [3] 0.026 | entinostat -0.19 | vorinostat 0.041 | citarinostat 0.009 | silmitasertib 0.1 | [4] 0.074 | [5] -0.138 | entospletinib 0.017

PMVK (UniProt Q15126)
inactive: [1] -0.04 | [2] -0.001 | [6] -0.114 | [3] 0.29 | entinostat -0.08 | vorinostat -0.134 | silmitasertib 0.065 | [4] 0.048

POM121C (UniProt A8CG34)
inactive: [1] 0.187 | [2] -0.013 | [6] -0.071 | entinostat -0.035 | silmitasertib -0.152

POLR2F (UniProt P61218)
inactive: [1] 0.207 | [2] 0.3 | [6] -0.004 | [3] 0.03 | entinostat 0.096 | vorinostat 0.034 | silmitasertib -0.117 | [4] 0.002

PNISR (UniProt Q8TF01)
inactive: [1] -0.017 | [2] 0.029 | [6] 0.036 | [3] 0.051 | entinostat -0.027 | vorinostat -0.007 | citarinostat -0.004 | silmitasertib -0.036 | [4] -0.022 | [5] -0.037 | entospletinib 0.006
